Negatives hold for the conditions tested.
Tests used:
[1] = tested on: phiC31 integrase (serine recombinase); assay: activity in cells; conditions: protein in cells, only the site is given
[2] = tested on: Bxb1 integrase (serine recombinase) (Mycobacteriophage Bxb1); assay: activity in cells; conditions: orthogonality: Bxb1 does not operate on phiC31 sites; protein in cells; only the site is given
[3] = orthogonality: phiC31 does not operate on Bxb1 sites
[4] = inversion of DNA between attB and attP in E. coli, GFP flow cytometry, 37 C

Sequence	activity on this sequence [1, 3]	activity on this sequence [2]	activity on this sequence [1, 4]
GTCGTGGTTTGTCTGGTCAACCACCGCGGTCTCAGTGGTGTACGGTACAAACCCCGAC (double strand) [Bxb1 attP]	not active		
GTGCCCCAACTGGGGTAACCTTTGAGTTCTCTCAGTTGGGGG (double strand) [phiC31 attP]		not active	active
TCGGCCGGCTTGTCGACGACGGCGGTCTCCGTCGTCAGGATCATCCGGGC (double strand) [Bxb1 attB]	not active		
TGCGGGTGCCAGGGCGTGCCCTTGGGCTCCCCGGGCGCGTACTCC (double strand) [phiC31 attB]		not active	active

— US20140315310
